Experimental data published in the supplement of paper PMC10338343.
± gives the standard deviation. The list shows a part of the results, in another mix than the full data. Many entries were measured with a wide error.

Each sequence was assayed on MIWI (PIWIL1) piRISC loaded with Kctd7 piRNA (30 nt) (assay: pre-steady-state target cleavage rate (min^-1); MIWI and MILI are mouse PIWI proteins and EfPiwi is from a freshwater sponge; tags in brackets are library labels; higher = faster piRNA-guided slicing of the target). Conditions: guide: Kctd7 piRNA 5'p-UGUUAAUCUCUCAGAGAAGGUGACAGUGAU; auxiliary factor: 500 nM mouse GTSF1.
Procedure, shortened: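 Three pooled Cleave-'n-Seq trials supplied the data, with k3 capped at 0.0001 min^-1. In each, […] transcribed, DNA-blocked target RNA library and 1 nM active affinity-purified piRISC with one synthetic guide reacted in HEPES–potassium acetate buffer at 33 °C for 0–8 or 0–960 min, with or without 500 nM GTSF1 partner protein. Uncleaved targets were sequenced and normalised to depth and to weakly complementary targets. A burst-and-steady-state fit provided the pre-steady-state cleavage rate.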
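Also: 1 nM active piRISC with 0.1 nM target library at 33 °C single turnover.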

Row | Sequence | pre-steady-state target cleavage rate
1 | UAGACUGUCUGCUUCUCUGAGAGAUAUUGA | 0.000375 ± 0.015
2 | UAGUGACAGUGCUUCUCUGAGAGAAAUACA | 0.000106 ± 0.029
3 | UAGUGACAGUGCUUCUCUGAGAGAUCUAACA | 0.00149 ± 0.0037
4 | UUCACAGUCACCAUCUCUGAGAGAUUAACA | 0.747 ± 0.039
5 | UAGUCUGUCACCUACUCUGAGAGAUAUUGA | 0.00258 ± 0.0039
6 | UAGUGACAGUGGAAGACUGACUCAUUAACA | 0.000101 ± 0.027
7 | UAGUGACUCACCUUCAGUGAGAGAUUAUGA | 0.00151 ± 0.0056
8 | UAGUCUGUCACCAUCUCUGAGAGAUUAACA | 0.667 ± 0.038
9 | UAGUGACAGUGGAACUCUGAGACAUUAACA | 0.000984 ± 0.018
10 | UAGUGACUCACCUUGAGUGAGAGAUUUUGA | 0.00056 ± 0.016
11 | UAGUGUGUGUGCUUCUCUGAGAGAUUUUGA | 0.0007 ± 0.012
12 | UACACUGAGACCUUCUCUGAGAGAUAUUGA | 0.0195 ± 0.0074
13 | UAGUGACAGUGGAACUCUGAGAGAUUAAUA | 0.000426 ± 0.027
14 | UAGUGACAGACCUUCUCUGUCAGAUUUUGA | 0.00158 ± 0.0072
15 | UAGUGACAGUCCUUCUCUGACUGAUUAACA | 0.000327 ± 0.0094
16 | UAGUGACAGUCCUUCUGACUCUCUAAUUGA [g15:g20:cont:t1A] | 0.000629 ± 0.012
17 | UUCACUGUCACCUUCUCACUCUCUAAUUGA [g14:g29:cont:t1A] | 0.00129 ± 0.0072
18 | UAGUGACACACCUUCUCUGAGUCAUAUUGA | 0.000121 ± 0.021
19 | UAGUGAGUCACCUUCUCUGAGUCUUAUUGA | 0.00157 ± 0.0065
20 | UAGUGACAGUGCUUCUCAGAGAGAUUAUCA | 0.00136 ± 0.0048
21 | UAGUCUUUCACCUUCUCUGAGAGAUUAACA | 0.265 ± 0.015
22 | UAGUGACAGACCUUCUCUGAGACAUUAACA | 0.039 ± 0.0076
23 | UAGUCUGUCACCUCUCUGAGAGAUUAACA | 0.447 ± 0.048
24 | UAGUGACUCACCUUCUCUGACUCAUUUUGA | 0.000535 ± 0.014
25 | UAGUGACAGUGGAAGACUGAGAGUUUAACA | 0.000195 ± 0.016
26 | UAGUGACAGACCUUCUCGAGAGAUUAACA | 0.00325 ± 0.0046
27 | UAGUGACAGUGGAAGAGACAGAGAUUAAGA | 0.000114 ± 0.042

Row | Sequence | pre-steady-state target cleavage rate
28 | UAGUGACAGUCGAACUCUGAGAGAUUAACA | 0.000125 ± 0.035
29 | UACACUGUCACCUUCUCUCUCAGAUUAACA | 0.00392 ± 0.0052
30 | UAGUGACAGUGGAAGAGAGAGAGUUAAACA | 0.000409 ± 0.016
31 | UUCAGUGUCACCUACUCUGAGAGAUUAACA | 0.509 ± 0.033
32 | UAGACUGUCACCUUCUCUGUCUGAUUAUGA | 0.000549 ± 0.009
33 | UAGUCUGUCACCUUCUCUCUCAGAUAUUGA | 0.000896 ± 0.01
34 | UAGUGACAGUGCUUCUCUGAGAGUUAACA | 0.000181 ± 0.011
35 | UUUACUGUCACCUUCUCUGAGAGAUUAACA | 0.708 ± 0.026
36 | UUCACUGGUCACCUUCUCUGAGAGAUUAACA | 0.652 ± 0.034
37 | UAGUGUGUCACCUUCUCUGACUGAUUAAGA | 0.000461 ± 0.013
38 | UAGUGACAGACCUUCUCUGAGAGAUUUUGA | 0.00148 ± 0.0055
39 | UAGUGACAGUCCAUCUCUGAGAGAUUAAGA | 0.00133 ± 0.0048
40 | UAGUGACAGUCCUUCUGACAGAGAUUAACA | 0.000259 ± 0.02
41 | UAGUGAGUGUGCUUCUCUGAGAGAUUUUGA | 0.000204 ± 0.031
42 | UAGUGACAGACCUUCUCUCAGAGAUUAAGA | 0.00131 ± 0.0096
43 | UAGUGACACACCUUCUCUGAGACUAUAAGA | 0.00025 ± 0.028
44 | UAGUCUGUCACCUUCUCUGAGUCAUUUUGA | 0.00118 ± 0.0056
45 | UUCACUGUCACCUUCUCACUGAGAUUAAGA | 0.0025 ± 0.0046
46 | UAGUGACUCACCUUCUCUCUCAGAUUAAGA | 0.000475 ± 0.015
47 | UACACUGUCCACCUUCUCUGAGAGAUUAACA | 0.496 ± 0.038
48 | AUCACUGUCAUCUUCUCUGAGAGAUUAACA | 0.827 ± 0.041
49 | UAGUGACAGUCCUUCAGUGAGAGAUUAACA | 0.00142 ± 0.0078
50 | UAGUGACAGUGCUUCACUGAGAGAUUAUCA | 0.00301 ± 0.0042
51 | UAGUGACAGUCCUUCUCUCUGAGAUUAAGA | 0.00057 ± 0.011
52 | AUCACUGUCACCUUCUCUGACAGAUUUUGA | 0.004 ± 0.0045
53 | UAGUGACAGUGGAAGAGAGAGAGAUAUUCA | 0.00049 ± 0.013
54 | AUCCUGUCACCUUCUCUGAGAGAUUAACA | 0.744 ± 0.052

Four neighbouring records from above, for reference:
Row | Sequence | pre-steady-state target cleavage rate
4 | UUCACAGUCACCAUCUCUGAGAGAUUAACA | 0.747 ± 0.039
5 | UAGUCUGUCACCUACUCUGAGAGAUAUUGA | 0.00258 ± 0.0039
6 | UAGUGACAGUGGAAGACUGACUCAUUAACA | 0.000101 ± 0.027
7 | UAGUGACUCACCUUCAGUGAGAGAUUAUGA | 0.00151 ± 0.0056

Remaining list, next part:

Row | Sequence | pre-steady-state target cleavage rate
55 | UACCACUGUCACCUUCUCUGAGAGAUUAACA | 0.773 ± 0.044
56 | UAGUCUGUCACCUUCUCUGUCUGAUUAACA | 0.00112 ± 0.0067
57 | UAGUGACACACCUUGUCUGAGAGAUUAUGA | 0.00305 ± 0.0035
58 | UAGUGACAGACGUUCUGUGAGAGAUUAACA | 0.00265 ± 0.0051
59 | UAGUGAGUCAGGUUCUCUGAGAGAUAUUGA | 0.000862 ± 0.0092
60 | AUGACUGUCACCAUCUCUGAGAGAUUAACA | 0.817 ± 0.06
61 | UAGACUGUCACCUUCUCUGAGGAGAUUAACA | 0.00216 ± 0.0026
62 | UAGUGACAGUGGAAGAGACAGAGAAUUAACA | 0.000568 ± 0.01
63 | UAGUGUGUGACCUUCUCUGAGAGAUAUUGA | 0.00329 ± 0.0036
64 | UAGUGACAGACCUUCUCUGAGACAUUUACA | 0.00166 ± 0.0061
65 | UAGUGACUCACCUUCUCUGAGUAGAUUAACA | 0.00106 ± 0.012
66 | UAGUGACAGUGGAACUCUGACUCUAAUUGA [g11:g16:cont:t1A] | 0.00454 ± 0.0076
67 | UAGUGAGAGACCUUCUCUGAGAGAUUUUGA | 0.00232 ± 0.0059
68 | UUCUCUGUCACCUUCUCUGAGAGUUUAACA | 0.517 ± 0.07
69 | UAGUGACAGACGUUGUCUGAGAGAUUAACA | 0.00188 ± 0.0047
70 | UAGUGACAGUCCUUCUCUGAAGAGAUUAACA | 0.000286 ± 0.018
71 | UAGUGACUCACCAAGUCUGAGAGAUAUUGA | < 0.0001
72 | UAGUGACACACCUUCUCUGAGUGAUUAAGA | 0.00194 ± 0.0052
73 | UAGUGACAGACCUUCUCUGAGUGAUUAUCA | 0.00325 ± 0.0062
74 | UAGUGACUCACCUUCUCUGUGAGAUUUUGA | 0.00148 ± 0.0047
75 | UAGUGACAGUCCUUCUCUGACAGUUUAACA | 0.000173 ± 0.014
76 | AUCACUGAGACCUUCUCUGAGAGAUAUUGA | 0.0157 ± 0.0047
77 | UAGUGACAGACCUUCUCUCUGAGAUUAACA | 0.000714 ± 0.011
78 | UUCACUGUCACCUUCUCUGAGUAGAUUAACA | 0.0213 ± 0.0063
79 | UAGUGAGUCACCUUCACUCAGAGAUUAACA | 0.0317 ± 0.0057
